Results: patent US20040010116A1, “Minicell display and products therefrom” (Children's Medical Center Corp., priority 2002, published 2004)
Part of at least one peptide drawing is inferred or uncertain, most often the ends. Where no end group is shown, it is not given here.

Tested on: cells with an assembled invasion complex
Assay: Cell migration
Assay type: cell-based

In the case of Ac-DKMLDP [SEQ ID NO: 54, DKMLDP], the “Migration of cells with an assembled invasion complex” value is reported as “inhibits the migration”.
